No constants are given. Whether binding was seen depends on the method and setting. Some entries that bind do so weakly or less than the wild type.
Target: P22 phage tailspike protein (P22 phage) (UniProt P12528)
Experiment: SDS-PAGE after heating

P22 phage tailspike protein (from UniProt P12528 1-667)
binding: binds
